# These are yes or no findings as the source states them, for the method shown.
# Target: dengue virus (DENV) non-structural protein 1 (NS1), recombinant, refolded from inclusion bodies (dengue virus (DENV)) (UniProt P14340)
# Test: condition: only after solubilization at HHP and pH 12.0; SEC; Superdex 200 10/300, elution in 50 mM CAPS pH 11.0; supernatant of NS1-IBs subjected to 2.4 kbar/0.4 kbar at pH 12.0, before dialysis; both purified
substance,measurement,value
"dengue virus (DENV) non-structural protein 1 (NS1), recombinant, refolded from inclusion bodies (from UniProt P14340)",binding,no binding

# Reference: paper PMC6347194, “Protein refolding based on high hydrostatic pressure and alkaline pH: Application on a recombinant dengue virus NS1 protein” (PLoS ONE, 2019)
